No constants are given. Whether binding was seen depends on the method and setting. Some binding calls cover weakened binding; strength is not graded here. Where a sequence is shown, tags or fusion partners need not be part of it.

The assay addresses T1, CFM2 (yeast two-hybrid fusion, transit peptide removed) (Arabidopsis thaliana) (UniProt Q8L7C2).
T1 sequence: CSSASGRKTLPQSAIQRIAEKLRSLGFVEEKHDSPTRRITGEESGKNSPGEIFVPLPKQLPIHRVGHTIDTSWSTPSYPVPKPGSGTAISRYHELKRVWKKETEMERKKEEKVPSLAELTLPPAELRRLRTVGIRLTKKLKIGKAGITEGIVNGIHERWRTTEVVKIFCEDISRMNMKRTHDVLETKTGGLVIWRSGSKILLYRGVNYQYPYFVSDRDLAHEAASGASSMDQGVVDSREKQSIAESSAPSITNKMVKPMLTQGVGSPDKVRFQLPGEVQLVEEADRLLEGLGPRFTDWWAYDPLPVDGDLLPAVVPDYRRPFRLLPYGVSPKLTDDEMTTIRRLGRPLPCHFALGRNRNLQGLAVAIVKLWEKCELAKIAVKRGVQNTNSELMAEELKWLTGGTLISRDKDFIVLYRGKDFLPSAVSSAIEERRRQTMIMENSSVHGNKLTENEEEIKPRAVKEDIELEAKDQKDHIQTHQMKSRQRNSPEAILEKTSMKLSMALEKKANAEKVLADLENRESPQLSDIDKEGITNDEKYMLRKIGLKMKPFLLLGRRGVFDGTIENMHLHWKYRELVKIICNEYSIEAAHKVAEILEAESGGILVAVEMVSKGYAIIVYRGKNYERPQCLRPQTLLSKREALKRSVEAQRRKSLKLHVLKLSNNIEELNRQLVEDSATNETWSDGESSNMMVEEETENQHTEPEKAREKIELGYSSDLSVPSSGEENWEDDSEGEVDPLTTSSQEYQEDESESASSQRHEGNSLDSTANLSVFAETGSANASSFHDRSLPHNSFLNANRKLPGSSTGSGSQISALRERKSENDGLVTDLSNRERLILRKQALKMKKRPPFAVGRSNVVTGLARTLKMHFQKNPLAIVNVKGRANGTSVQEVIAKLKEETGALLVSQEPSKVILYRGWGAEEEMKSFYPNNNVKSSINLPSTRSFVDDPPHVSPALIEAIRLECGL
In words: two-hybrid.

B1: EMB976 (yeast two-hybrid fusion, transit peptide removed) (protein, UniProt O04647 1-1038)
chain: MKSDFLTSTTHFNPSIFLPKIPSRNSRISIKSSSSSSKVRPDPWSLSDGNPEKPKPRYERPKHPLSDDDARRIIKKKAQYLSTLRRNQGSQAMTPKWIKRTPEQMVQYLEDDRNGQMYGKHVVAAIKTVRGLSQRRQGSDDMRFVMSSFVAKLSFRDMCVVLKEQRGWRQVRDFFSWMKLQLSYRPSVVVYTIVLRLYGQVGKIKMAEETFLEMLEVGCEPDAVACGTMLCTYARWGRHSAMLTFYKAVQERRILLSTSVYNFMLSSLQKKSFHGKVIDLWLEMVEEGVPPNEFTYTLVVSSYAKQGFKEEALKAFGEMKSLGFVPEEVTYSSVISLSVKAGDWEKAIGLYEDMRSQGIVPSNYTCATMLSLYYKTENYPKALSLFADMERNKIPADEVIRGLIIRIYGKLGLFHDAQSMFEETERLNLLADEKTYLAMSQVHLNSGNVVKALDVIEMMKTRDIPLSRFAYIVMLQCYAKIQNVDCAEEAFRALSKTGLPDASSCNDMLNLYTRLNLGEKAKGFIKQIMVDQVHFDIELYKTAMRVYCKEGMVAEAQDLIVKMGREARVKDNRFVQTLAESMHIVNKHDKHEAVLNVSQLDVMALGLMLNLRLKEGNLNETKAILNLMFKTDLGSSAVNRVISSFVREGDVSKAEMIADIIIRLGLRMEEETIATLIAVYGRQHKLKEAKRLYLAAGESKTPGKSVIRSMIDAYVRCGWLEDAYGLFMESAEKGCDPGAVTISILVNALTNRGKHREAEHISRTCLEKNIELDTVGYNTLIKAMLEAGKLQCASEIYERMHTSGVPCSIQTYNTMISVYGRGLQLDKAIEIFSNARRSGLYLDEKIYTNMIMHYGKGGKMSEALSLFSEMQKKGIKPGTPSYNMMVKICATSRLHHEVDELLQAMERNGRCTDLSTYLTLIQVYAESSQFAEAEKTITLVKEKGIPLSHSHFSSLLSALVKAGMMEEAERTYCKMSEAGISPDSACKRTILKGYMTCGDAEKGILFYEKMIRSSVEDDRFVSSVVEDLYKAVGKEQDV
Turning to B1, the binding entry is listed as “no binding”.

B2: EMB1006-NT (EMB1006 amino acids 44-273, Non-PPR domain) (domain or fragment, UniProt Q9FGR7 44-273)
chain: SATSPSSSSSSPSIFLSCFDDALPDKIQQPENSTINSEESECEEEDDEEGDDFTDPILKFFKSRTLTSESTADPARESKFSLQKNRRTSWHLAPDFADPETEIESKPEESVFVTNQQTLGVHIPFESGVAREILELAKNLKENQTLGEMLSGFERRVSDTECVEALVMMGESGFVKSCLYFYEWMSLQEPSLASPRACSVLFTLLGRERMADYILLLLSNLPDKEEFRDV
Take B2: the binding entry was “binds”.

The values above are taken from paper doi:10.1101/2023.12.07.570680.
